Values joined by “and” are separate entries in the source; they are usually repeats but may differ in a detail not shown here. Equal values may be shown once. The list shows a part of the results. These are further read-outs of the screen, such as a control signal, another cell line or another target. No call is given for them. Compounds called inactive in the main read-out are mostly missing here. Potencies come from curve fits of mixed quality, noted in brackets.
Assay: qHTS Assay for Modulators of Lamin A Splicing
Details: HeLa LMNA splicing GFP/RFP minigene ratio, 48 h
Procedure, shortened: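 S3 HeLa stable clones carrying a lamin A-EGFP splicing minigene plus DsRed2 were seeded at 600 cells/well in Opti-MEM with 2% FBS, pin-dosed and incubated 48 h at 37°C. Acumen cytometry (488 nm) gave the GFP/RFP total-intensity ratio.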

[1] = measured here: RFP viability control channel
[2] = measured here: GFP splicing reporter channel

SMILES | AC50 [1] | AC50 [2]
Cc1sc(NC(=O)CCl)c(C(=O)c2ccccc2)c1C | 11.2 µM [rising, partial curve] | –
CC(=O)N1CCCc2cc(S(=O)(=O)N3CCCC(C(=O)NCc4ccc(C)cc4)C3)ccc21 (stereo unspecified) | 5.62 µM [falling, single point] | 3.98 µM [falling, full curve, poor fit]
C=CCc1ccccc1OC[C@H](O)CNC(C)C | – | 0.355 µM [falling, partial curve]
COC(=O)c1cc(=O)n(Cc2ccc3c(c2)OCO3)c(=Nc2ccccc2)s1 | 20 µM [rising, partial curve] | –
Nc1ccc(C(=O)Oc2ccccc2)c(O)c1 | – | 22.4 µM [falling, partial curve, poor fit]
O=c1c(-c2ccc(F)cc2)nc2cnc(Oc3cccc(Cl)c3)nc2n1C1CC1 | 5.01 µM [falling, partial curve] | –
CN(C)S(=O)(=O)N1CCCC(C(=O)c2ccc(C(F)(F)F)cc2)C1 (stereo unspecified) | 3.98 µM [falling, full curve, poor fit] | 0.355 µM [falling, full curve, poor fit]
CC(=O)C1=C(c2ccccc2)N(C(C)=O)n2c(C)nnc2S1 | 2.24 µM [falling, partial curve, poor fit] | 4.47 µM [falling, partial curve, poor fit]
CNNCc1ccc(C(=O)NC(C)C)cc1 | 3.16 µM [falling, single point] | –
COc1ccc(C2CC3(CC(C)(C)NC(=O)N3)Oc3cc(O)ccc32)cc1 (stereo unspecified) | 10 µM [rising, partial curve] | –
Cc1ccc(S(=O)(=O)C(CNC(=O)COc2ccccc2)c2ccco2)cc1 (stereo unspecified) | – | 0.0447 µM [rising, full curve, poor fit]
O=C(CCCNS(=O)(=O)c1cccc2nsnc12)NCc1ccccc1 | 25.1 µM [rising, single point] | –
C[C@H](CCC(=O)O)[C@H]1CC[C@@H]2[C@H]3[C@@H](C[C@@H](O)[C@]21C)[C@]1(C)CC[C@H](O)C[C@@H]1C[C@@H]3O | 0.355 µM [falling, partial curve] | 0.355 µM [falling, partial curve, poor fit]
CCCCONc1ncnc2nonc12 | 11.2 µM [rising, partial curve] | 7.94 µM [rising, partial curve, poor fit]
Cc1nc2ccccc2nc1OCc1ccc([N+](=O)[O-])cc1 | 11.2 µM [rising, partial curve, poor fit] | –
COC(=O)N/N=C/c1cc(C)n(-c2ccccc2)c1C | 0.01 µM [rising, full curve, poor fit] | –
Cc1cc(C)n(-c2nc3cc(Cl)ccc3nc2N2CCN(c3ccccc3F)CC2)n1 | – | 0.0398 µM [falling, full curve, poor fit]

One compound at a time, from the list above. Order of values: AC50 [1]	AC50 [2]
COC(=O)N/N=C/c1cc(C)n(-c2ccccc2)c1C in the list: 0.01 µM [rising, full curve, poor fit]	–
CC(=O)C1=C(c2ccccc2)N(C(C)=O)n2c(C)nnc2S1 in the list: 2.24 µM [falling, partial curve, poor fit]	4.47 µM [falling, partial curve, poor fit]

Additional structures

SMILES | AC50 [1] | AC50 [2]
COc1ccc(/C=C2\SC(=O)N(CCNC(=O)Cc3coc4cc(C)ccc34)C2=O)cc1OC | – | 22.4 µM [rising, single point]
Cc1ccc(NC(=O)CSc2nccn2Cc2ccccc2)cc1C | 17.8 µM [rising, partial curve, poor fit] | 14.1 µM [rising, partial curve, poor fit]
COc1cnc(-c2ccccn2)nc1Oc1ccc(Cl)c2ccccc12 | 20 µM [falling, single point] | 12.6 µM [falling, single point]
COc1ccc(CN(C2CCCC2)S(=O)(=O)c2ccc(-n3cnnn3)c(OC)c2)cc1OC | 31.6 µM [rising, single point] | –
CCOc1cc(-c2ccc(OC(=O)c3ccccc3)c(OC)c2)cc(=O)c2c(C)oc(C)c12 | 22.4 µM [falling, single point] | 35.5 µM [falling, single point]
COc1ccc(C)cc1Nc1ncnc2c1c(-c1ccccc1)cn2-c1ccc(C)cc1 | – | 5.62 µM [falling, single point]
CCN1CCC2(CC1)N=C(c1ccc(F)cc1)C(=S)N2C(=O)c1ccc(C(C)(C)C)cc1 | 14.1 µM [rising, single point] | 12.6 µM [rising, single point]
Cc1cccc(N2C(=O)SC(SC(=Nc3ccccc3)Nc3ccccc3)C2=O)c1 (stereo unspecified) | 20 µM [rising, single point] | 12.6 µM [rising, single point]
Cc1ccccc1-c1ccc(C(=O)Nc2cccc(F)c2)o1 | 7.94 µM [rising, partial curve] | –
Cc1cc(C(=O)CSc2nnnn2-c2ccc(O)cc2)c(C)n1Cc1ccc2c(c1)OCO2 | 7.08 µM [rising, partial curve] | –
CCC(C)N1C(=O)/C(=C/c2c(NCCCOC(C)C)nc3c(C)cccn3c2=O)SC1=S (stereo unspecified) | 10 µM [rising, single point] | 6.31 µM [rising, partial curve, poor fit]
O=c1[nH]c(=O)n([C@H]2C[C@H](O)[C@@H](CO)O2)cc1F | 4.47 nM [rising, full curve, poor fit] and 355 nM [rising, full curve] | –
CN(C)C(=S)SCC(=O)Nc1ccc(Cl)cc1Cl | 35.5 µM [rising, single point] | 35.5 µM [rising, single point]
CCOC(=O)c1c(NC(=S)Nc2cc([N+](=O)[O-])ccc2OC)sc2c1CCCCC2 | 35.5 µM [rising, partial curve, poor fit] | –
Cc1ccc(-n2nc3ccc(NC(=S)NC(=O)/C=C/c4ccco4)cc3n2)cc1 | 0.0501 µM [rising, full curve, poor fit] | –
CC(C)(C)NCC(O)CON=C1c2ccccc2-c2ccccc21 (stereo unspecified) | 15.8 µM [rising, partial curve] | –
COCCNc1ncnc2nc[nH]c12 | 6.31 µM [falling, partial curve, poor fit] | –

— PubChem BioAssay AID1487 (National Center for Advancing Translational Sciences (NCATS), 2009)
